# Results from article PMC10855381.
# Protein sequences, listed by entry. Tags and fused reporters are not part of them. Residues count along the entry.
# UniProt Q28178, residues 19-1170: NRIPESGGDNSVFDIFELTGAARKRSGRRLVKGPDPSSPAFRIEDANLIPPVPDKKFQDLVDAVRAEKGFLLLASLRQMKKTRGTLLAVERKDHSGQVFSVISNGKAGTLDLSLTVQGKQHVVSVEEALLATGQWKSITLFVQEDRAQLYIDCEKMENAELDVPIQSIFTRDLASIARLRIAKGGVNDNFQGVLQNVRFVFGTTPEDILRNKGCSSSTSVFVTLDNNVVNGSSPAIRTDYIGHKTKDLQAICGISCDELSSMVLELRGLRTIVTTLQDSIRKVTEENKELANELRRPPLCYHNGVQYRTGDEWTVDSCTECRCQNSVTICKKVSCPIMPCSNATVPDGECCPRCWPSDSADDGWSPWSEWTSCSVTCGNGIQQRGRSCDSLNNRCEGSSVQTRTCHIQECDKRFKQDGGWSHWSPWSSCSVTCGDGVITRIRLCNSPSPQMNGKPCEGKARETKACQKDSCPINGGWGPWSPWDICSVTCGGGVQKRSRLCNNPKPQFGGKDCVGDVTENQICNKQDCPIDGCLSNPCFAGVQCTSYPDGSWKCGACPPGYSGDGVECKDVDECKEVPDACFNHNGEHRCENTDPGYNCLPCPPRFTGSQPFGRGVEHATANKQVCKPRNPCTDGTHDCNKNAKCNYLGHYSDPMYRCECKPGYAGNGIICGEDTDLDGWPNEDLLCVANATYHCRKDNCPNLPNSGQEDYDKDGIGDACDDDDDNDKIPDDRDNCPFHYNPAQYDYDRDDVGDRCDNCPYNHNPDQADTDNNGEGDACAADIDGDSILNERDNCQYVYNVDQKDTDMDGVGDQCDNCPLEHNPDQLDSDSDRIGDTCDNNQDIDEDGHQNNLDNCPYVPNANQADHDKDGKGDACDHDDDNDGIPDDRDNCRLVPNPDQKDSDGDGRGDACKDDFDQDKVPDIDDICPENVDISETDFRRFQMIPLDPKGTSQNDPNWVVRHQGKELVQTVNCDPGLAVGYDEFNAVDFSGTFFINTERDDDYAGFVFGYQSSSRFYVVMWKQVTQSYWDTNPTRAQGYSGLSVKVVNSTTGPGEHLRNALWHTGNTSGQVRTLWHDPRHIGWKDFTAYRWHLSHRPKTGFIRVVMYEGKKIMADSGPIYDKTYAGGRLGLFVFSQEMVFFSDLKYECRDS
# Results are given in words; binding and its absence hold for the method and conditions named. Binding seen in cells or lysates may run through a third protein. Some entries that bind do so weakly or less than the wild type. Sequences can lack the tags named with a protein.
# Target: T1, V5-tagged PP2A B55α (pcDNA3.1 V5-His PP2A Bα) (UniProt P63151)
# T1 sequence: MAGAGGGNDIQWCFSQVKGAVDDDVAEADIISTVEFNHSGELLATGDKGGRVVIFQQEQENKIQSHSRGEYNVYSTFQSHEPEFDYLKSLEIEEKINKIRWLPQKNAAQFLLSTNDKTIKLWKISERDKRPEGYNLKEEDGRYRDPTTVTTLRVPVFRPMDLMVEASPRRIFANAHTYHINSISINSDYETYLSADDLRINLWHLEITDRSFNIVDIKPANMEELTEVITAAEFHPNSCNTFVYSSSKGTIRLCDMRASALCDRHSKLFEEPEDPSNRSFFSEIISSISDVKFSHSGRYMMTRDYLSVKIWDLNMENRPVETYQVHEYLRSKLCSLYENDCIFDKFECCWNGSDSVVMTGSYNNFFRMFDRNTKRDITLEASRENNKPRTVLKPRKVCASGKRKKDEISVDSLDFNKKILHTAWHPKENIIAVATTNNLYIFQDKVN
# Experiment: co-IP; lysates of endothelial cells transfected with pcDNA3.1 V5-His PP2A Bα or B’γ incubated with anti-V5 agarose affinity gel; eluates blotted for V5-tag, TSP1, PP2A A and PP2A C
substance,measurement,value
"Thrombospondin-1 (TSP1), endogenous in bovine pulmonary artery endothelial cells (from UniProt Q28178 19-1170)",binding,binds
